Consider one molecule from paper PMC6996959.

The target in this test is T1, receptor-interacting protein kinase 1 (endogenous, mouse heart) (mouse (endogenous in mouse heart)), Q60855.
T1 chain: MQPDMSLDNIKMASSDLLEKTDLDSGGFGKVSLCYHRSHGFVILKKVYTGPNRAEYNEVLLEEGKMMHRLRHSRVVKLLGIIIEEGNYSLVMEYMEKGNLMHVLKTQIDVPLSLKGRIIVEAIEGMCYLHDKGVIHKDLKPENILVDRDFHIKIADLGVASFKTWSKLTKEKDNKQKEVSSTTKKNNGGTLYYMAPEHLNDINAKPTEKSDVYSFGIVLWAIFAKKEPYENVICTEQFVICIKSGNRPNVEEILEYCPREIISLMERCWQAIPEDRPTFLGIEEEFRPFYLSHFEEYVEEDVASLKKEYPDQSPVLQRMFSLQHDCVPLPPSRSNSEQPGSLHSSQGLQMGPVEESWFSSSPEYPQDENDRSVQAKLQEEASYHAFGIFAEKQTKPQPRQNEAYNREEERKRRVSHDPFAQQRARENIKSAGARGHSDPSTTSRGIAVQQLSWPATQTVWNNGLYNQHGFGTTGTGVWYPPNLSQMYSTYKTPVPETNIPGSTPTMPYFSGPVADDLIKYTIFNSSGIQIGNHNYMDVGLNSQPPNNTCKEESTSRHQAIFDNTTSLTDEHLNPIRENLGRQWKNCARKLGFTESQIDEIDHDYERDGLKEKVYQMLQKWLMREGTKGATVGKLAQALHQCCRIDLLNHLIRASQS
Briefly: co-IP; co-immunoprecipitation from young and aged mouse hearts, sham, ischemia (30 min) or ischemia followed by 4 hr of reperfusion; also from aged hearts after Nec-1, Ad-sh-p62 or metformin and from RIP3 KO hearts; which protein was precipitated is not told in the text shown. The settings on record: remark: other sources report otherwise.

No constants are given. Whether binding was seen depends on the method and setting. In cells and extracts the contact can be indirect. Some entries that bind do so weakly or less than the wild type.

B1: receptor-interacting protein kinase 3 (endogenous, mouse heart), Q9QZL0 1-486 (protein)
chain: MSSVKLWPTGASAVPLVSREELKKLEFVGKGGFGVVFRAHHRTWNHDVAVKIVNSKKISWEVKAMVNLRNENVLLLLGVTEDLQWDFVSGQALVTRFMENGSLAGLLQPECPRPWPLLCRLLQEVVLGMCYLHSLNPPLLHRDLKPSNILLDPELHAKLADFGLSTFQGGSQSGSGSGSGSRDSGGTLAYLDPELLFDVNLKASKASDVYSFGILVWAVLAGREAELVDKTSLIRETVCDRQSRPPLTELPPGSPETPGLEKLKELMIHCWGSQSENRPSFQDCEPKTNEVYNLVKDKVDAAVSEVKHYLSQHRSSGRNLSAREPSQRGTEMDCPRETMVSKMLDRLHLEEPSGPVPGKCPERQAQDTSVGPATPARTSSDPVAGTPQIPHTLPFRGTTPGPVFTETPGPHPQRNQGDGRHGTPWYPWTPPNPMTGPPALVFNNCSEVQIGNYNSLVAPPRTTASSSAKYDQAQFGRGRGWQPFHK
For the molecule B1, the binding result was “binds”.
